Data reported in PMC10163288.
The list shows a part of the results.

B1: il2ra_site2_2erj_normal_mot_HHH_b1_07806_000000211_0001_42_56_H_._HHH_b2_07722_0001_0000200021_0000001_0 (protein)
chain: SSSSSEIVRRVYELLERADQAIQEGDEEAVRKIIEELEELAEKFENRAIEWAAEALERQLGSSSS
B2: il2ra_site2_2erj_sap_9_mot_HHH_b1_07584_000000201_0001_42_55_H_._HHH_b2_03843_af2_0001_0000600005_0000001_0_0001_af2pred_0001_1_af2pred_swapped (protein)
chain: PEELLELLRRALKYLKSPLAEELLRVLEELLERGVPPEEIEEELKRVAQELNDPDLERAVKAAGP
B3: il2ra_site1_3nfp_sap_12_mot_e80b558ee5422d85aa46efdc370d0602_0001_af2_000000114_0001_54_65_H_._HHH_b1_00120_0001_0001000036_0000001_0_0001 (protein)
chain: SSSEEEREKVREELEEIAEELGIDPHLVKAALRAWEAFVRAGVDAEEAREAARDALERWWEGSSS
B4: il2ra_site1_2b5i_sap_8_mot_HHH_b2_03607_af2_000000052_0001_1_19_H_._HHH_b2_00963_0001_0000100002_0000001_0_0001_af2pred_dldesign_0_af2pred (protein)
chain: SSSSSSSEARKLIKELEAAVKAEDKEKIEELLKKLEEYAEKHGDKFAKWIVEQVKEELSSSSSSS
B5: il2ra_site2_3nfp_sap_20_mot_HHH_b2_08110_af2_000000162_0001_23_39_H_._4d6df6f985955b7c69c184668ae98992_0001_1_af2_0001_0000300012_0000001_0_0001 (protein)
chain: SSSSSDDHEAYERVVELLKQANRIEDPEEVERLLEEAERLAEEANSPLLRRSVEFVARALSSSSS
B6: il2ra_site2_2erj_sap_30_mot_HHH_b2_00938_af2_000000099_0001_43_55_H_._c0f0c6b645b03e3acbc3a7421e1f7935_0001_1_af2_0001_0000300023_0000001_0_0001 (protein)
chain: SSSSDRLEELLERAEELIEEGDPEEAHKVLREAAEIAFKEGDFETFSKIAELLREVAQLESSSSS
B7: il2ra_site1_2b5i_normal_mot_HHH_b2_04910_000000118_0001_1_19_H_._HHH_b2_01005_0001_0000400029_0000001_0_af2pred_dldesign_0_af2pred (protein)
chain: SSSSSPKYEELLRLIKEAEALYKAGKPEEAKEKLEEAKKLAEELGMTSLLKMIELALAEISSSSS
B8: il2ra_site2_3nfp_sap_11_mot_HHH_b1_00660_af2_000000090_0001_40_57_H_._HHH_b1_04028_0001_0000200005_0000001_0_0001 (protein)
chain: SSSSSDEEIQERVEELLEEARHVEDPEELRRILAEAAHLAFELNDPELFYKIAEAVYEIRSSSSS
B9: il2ra_site2_2erj_sap_9_mot_HHH_b1_07562_000000147_0001_41_55_H_._HHH_b2_04125_0001_0000200012_0000001_0_0001 (protein)
chain: SSSSDEEEREELKQIVEEIVEEFGLSERDRELLEESAKIALELGTSVELIEEFLRLVAEALSSSS
B10: il2ra_site2_3nfp_normal_mot_HHH_b2_04451_000000238_0001_21_37_H_._HHH_b2_04858_af2_0001_0001000029_0000001_0 (protein)
chain: SSSSSEEEEKVKELIEEVEEALKQGDRYEALQLLLEASKIAVRNNNPELARLLLELFEKIQSSSS
B11: il2ra_site2_2erj_sap_17_mot_HHH_b1_05386_000000188_0001_22_38_H_._HHH_b1_00531_0001_0000100002_0000001_0_0001 (protein)
chain: SSSSSDVREEVEELIERAEEAWEKGDLHAVYELANRIMHLAAKYNDPEILELLRELMERVSSSSS
B12: il2ra_site1_1z92_normal_mot_HHH_b1_04604_af2_000000029_0001_42_56_H_._HHH_b2_03915_0001_0000100005_0000001_0_af2pred_0001_af2pred (protein)
chain: SSSSDAELAAEADELLAEGNPEKVEEVLEEIRRAAEERDSRRLKEILENLEEELRELEEESSSSS
B13: il2ra_site2_3nfp_sap_19_mot_HHH_b2_02831_000000278_0001_1_18_H_._5fa2c1a30f04debedfe40931e4d0b367_0001_af2_0001_0000600012_0000001_0_0001 (protein)
chain: SSSSSDEEEAEEAIRILEELGDEEAARYLEAALKLLRENKDPRLRELLKAAVRVVIEARRSSSSS
B14: il2ra_site2_2erj_sap_9_mot_HHH_b1_07584_000000201_0001_42_55_H_._HHH_b2_06441_af2_0001_0000800006_0000001_0_0001 (protein)
chain: SSSSSSEERKEAEELLEEAKEIEDPEEAWEVLREAAELAWEGNDFELWSEIAKILRELASSSSSS
B15: il2ra_site2_3nfp_sap_22_mot_HHH_b1_04960_000000149_0001_23_39_H_._HHH_b2_01371_af2_0001_0000400031_0000001_0_0001 (protein)
chain: SSSSDRAEEYVRAALKLLELALKEGDEEIFERLAEIIEAAIESQGNPELEERLEELKEEGSSSSS
B16: il2ra_site1_2b5i_sap_17_mot_HHH_b2_06557_000000121_0001_42_56_H_._HHH_b1_07426_0001_0000100010_0000001_0_0001_af2pred_0001_af2pred_1 (protein)
chain: SSSSDEAEELFELLEEANKLAHEGNDEEARKLLEEAERLAEEAGNKSLLRLLRAALRILESSSSS
B17: il2ra_site1_2b5i_normal_mot_HHH_b2_04910_000000118_0001_1_19_H_._HHH_b2_03045_0001_0000400017_0000001_1_af2pred_dldesign_0_af2pred (protein)
chain: SSSSSSPELRALLREADALRQAGKDEEAKEVLEEALALAKALKNNAAIKMVESAIKELNSSSSSS
B18: il2ra_site1_2b5i_sap_13_mot_HHH_b2_04274_000000042_0001_1_19_H_._HHH_b2_08110_0001_0000300021_0000001_0_0001_af2pred_dldesign_0_af2pred (protein)
chain: SSSSSRIDRLIELAEEAIAEVKAEGDKAAGAKLVAELRRAAALLKDPRLKALADEAEAWLASSSS
B19: il2ra_site2_3nfp_sap_19_mot_HHH_b2_07209_000000186_0001_1_17_H_._095aa0115aa001b1004419c4ef159b4a_0001_0001_0000100004_0000001_0_0001 (protein)
chain: SSSSDVEELIEEARELIEEGDLFEAAQALMEASKLALELGDPELFRELVKLFEEARERHGSSSSS
B20: il2ra_site1_1z92_sap_14_mot_HHH_b1_01467_000000208_0001_22_39_H_._HHH_b2_01099_0001_0000400016_0000001_0_0001 (protein)
chain: SSSSSREALEELVKSVIELLERVNNPKLFERLKFLLREARLLGDEELVREIEEVLERFEELSSSS
B21: il2ra_site1_3nfp_sap_31_mot_HHH_b1_01273_af2_000000279_0001_1_19_H_._HHH_b1_00743_0001_0000500051_0000001_1_0001 (protein)
chain: SSSSTEELHHLAELVREAYKAAAEGNEEEVEELLEEARRLAEEINDKVARRLLEEIKRNLSSSSS
B22: il2ra_site1_1z92_sap_29_mot_HHH_b1_03199_000000116_0001_40_57_H_._HHH_b1_01207_0001_0000500021_0000001_0_0001 (protein)
chain: PDEYLREQLRKALERDPRAAKNILEKFLRSAGVPPEEIEEILRRVEELAKRDPEKAAELAIELLH
B23: il2ra_site1_1z92_normal_mot_HHH_b1_03815_000000162_0001_1_20_H_._HHH_b1_01429_0001_0000100018_0000001_0 (protein)
chain: SSSSSAEEYIEEMARALYRTIEAKGNPRARERLELLLRQARLLGDEELRELIEQLLEELRSSSSS
B24: il2ra_site1_3nfp_normal_mot_HHH_b1_01335_af2_000000105_0001_39_53_H_._HHH_b1_04597_0001_0000700040_0000001_0_af2pred_0001_1_af2pred_swapped (protein)
chain: SSSSSDEEEVKRLLEEAEEALENGDPEEAHRLLEEALRIAKENDDPELLELVFEAMRRLASSSSS
B25: il2ra_site1_1z92_sap_3_mot_47733d3662eb36425869ff66b6028fdd_0001_af2_000000189_0001_37_50_H_._491eb89182d8d7232e345b1be462dd80_0001_af2_0001_0000100001_0000001_ … (protein)
chain: SSSSSSAEERAEFVFRNAEMLIKRGNEEAVEWAIRLLEAIARLGNDPEAEELVERLRELLSSSSS
B26: il2ra_site2_3nfp_normal_mot_HHH_b2_04451_000000238_0001_21_37_H_._HHH_b2_00723_af2_0001_0000500044_0000001_0 (protein)
chain: SSSSDLEEEVERLIEEVERLLEEGDKHEAAQLLLEATKLVAELNNEELARILLELFELLQKSSSS
B27: il2ra_site2_3nfp_sap_32_mot_HHH_b1_02173_000000190_0001_1_18_H_._f0ee23d083d0677da3dfcc8a6cd225b6_0001_0001_0000400035_0000001_0_0001 (protein)
chain: SSSSDEEELEELLEELRRLVEENDEERARRLIARIAHLAFELNDSEVFFKLAELLYLLVRLSSSS
B28: il2ra_site2_3nfp_normal_mot_HHH_b1_03966_000000254_0001_1_19_H_._HHH_b2_07664_0001_0000100004_0000001_0 (protein)
chain: SSSSDEEEEEAAKLAFLVYELARQGDTEEARKVAEEAIKRAEELGDEKVVRLLELALDALSSSSS
B29: il2ra_site1_2b5i_normal_mot_HHH_b2_06044_000000134_0001_1_20_H_._HHH_b2_07763_af2_0001_0000200019_0000001_1_af2pred_dldesign_0_af2pred (protein)
chain: SSSSSEKEDELYELYNKALELFRAGKREEAKKLLDEALELARELGSEKLAAELERFRALLSSSSS
B30: il2ra_site2_3nfp_sap_22_mot_HHH_b1_04312_000000268_0001_22_39_H_._HHH_b1_01863_af2_0001_0000200011_0000001_0_0001_af2pred_0001_af2pred (protein)
chain: SSSSSSEVEEEIEELIERAKRIPDPHEAFAVLARALRLAEELNDPELLREVRELLRELRSSSSSS
B31: il2ra_site2_2erj_sap_22_mot_HHH_b2_03255_af2_000000127_0001_19_36_H_._HHH_b1_07611_0001_0000100004_0000001_1_0001 (protein)
chain: SSSSDEREELEEEVEELLRQAEERGDLHLLYRIAVEALHRAVRLNDPEAERFIAKLAQELSSSSS
B32: il2ra_site1_3nfp_normal_mot_46d73865503fbedcaf0f3a45445d594c_0001_af2_000000151_0001_1_12_H_._HEEHE_1580_af2_0001_0000500009_0000001_0 (protein)
chain: NLEEAIRLAAEQLAEEVGIPSIEITVENGEVHVTIEGTDNDARVASRLIEEAAKALGVPLEVTLE
B33: il2ra_site2_2erj_normal_mot_HHH_b1_00376_000000139_0001_38_52_H_._HHH_b2_08330_0001_0000700006_0000001_0 (protein)
chain: SSSSTVEELVIEFAEETIEAAERGDEELVRELLEEALEIAERHNNLALFRFLERQLELERSSSSS
B34: il2ra_site2_2erj_sap_14_mot_HHH_b1_04257_af2_000000188_0001_43_57_H_._HHH_b2_02437_0002_0000400020_0000001_0_0001_af2pred_0001_af2pred (protein)
chain: SSSSDVEERVRELLEEARELLEEGNPHRAFAVLNEAALLAAEAGDDELFEEVLKVAHKISRSSSS
B35: il2ra_site2_3nfp_normal_mot_HHH_b1_01086_000000225_0001_20_36_H_._HHH_b1_01202_0001_0001000024_0000001_0_af2pred_0001_af2pred (protein)
chain: SSSSDFHKYTLRAALLEIEVAIEAGDEELVERLIKNLEKLIKELNDEEMEERLEELKRELSSSSS
B36: il2ra_site2_3nfp_sap_21_mot_HHH_b2_05843_000000230_0001_1_19_H_._3cfacc6722bd33c9c25ec9075f684c77_0001_af2_0001_0000200034_0000001_0_0001_af2pred_0001_af2pred (protein)
chain: SSSSSDEEELRELQEKLRELLEEGDEEEAERVAKELAELASRLGDEEAYREAVSIANELESSSSS
B37: il2ra_site1_2b5i_normal_mot_22370d59370c406a0c205a431f537cfa_0001_af2_000000027_0001_1_31_H_._HHH_b2_03791_0002_0000300023_0000001_0_af2pred_dldesign_0_af2pred (protein)
chain: SSSSSPLEKAASDIVDELADKYGLDSEQYNELARLAAELVLQGVSPEEIREILEKRAEELKSSSS

The binders below were run against il2ra, P01589 (assay: yeast display titration).

Apparent Kd, inactive:
B1 no binding seen
B2 no binding seen
B3 no binding seen
B4 no binding seen
B5 no binding seen
B6 no binding seen
B7 no binding seen
B8 no binding seen
B9 no binding seen
B10 no binding seen
B11 no binding seen
B12 no binding seen
B13 no binding seen
B14 no binding seen
B15 no binding seen
B16 no binding seen
B17 no binding seen
B18 no binding seen
B19 no binding seen
B20 no binding seen
B21 no binding seen
B22 no binding seen
B23 no binding seen
B24 no binding seen
B25 no binding seen
B26 no binding seen
B27 no binding seen
B28 no binding seen
B29 no binding seen
B30 no binding seen
B31 no binding seen
B32 no binding seen
B33 no binding seen
B34 no binding seen
B35 no binding seen
B36 no binding seen
B37 no binding seen

Copied from above (two entries):
Apparent Kd, inactive:
B25 no binding seen
B26 no binding seen
